For this test, the system named is mice. The test can be described thus: animal or person. As to conditions: Mus musculus, sc, read-out: Dose Subcutaneously (sc) [*= ED50 ], 50 % Inhibition of phenylquinone writhing. The test is classed as in vivo, mice (male, CD-1).

For `CN1CC[C@]23c4c5ccc(O)c4O[C@H]2[C@@H](O)C=C[C@H]3[C@H]1C5.O=S(=O)(O)O` [morphine sulfate], the ED50 was 0.52 mg/kg.

Broadly, the ED50 is the dose that gives a 50% effect, or the effect in half of the subjects.

The values are drawn from patent US4430335A (priority 1983, dated 1984).
